According to PubChem BioAssay AID720504 (National Center for Advancing Translational Sciences (NCATS), 2013):
About 10,000 (2.8%) of roughly 360,000 compounds were called active. The shares of active, inactive and inconclusive entries below differ from those in the screen. The call rests on the fitted dose curve; in most records, active means well fitted inhibition curve with a large enough effect; inconclusive means small, poorly fitted or top-dose-only effect; inactive means flat fitted curve, though single readings scatter. Where the call is inconclusive, the potency comes from a doubtful curve fit.

Chains of the proteins cited; added tags and fusions are not shown.
UniProt P53350, whole entry, looked up: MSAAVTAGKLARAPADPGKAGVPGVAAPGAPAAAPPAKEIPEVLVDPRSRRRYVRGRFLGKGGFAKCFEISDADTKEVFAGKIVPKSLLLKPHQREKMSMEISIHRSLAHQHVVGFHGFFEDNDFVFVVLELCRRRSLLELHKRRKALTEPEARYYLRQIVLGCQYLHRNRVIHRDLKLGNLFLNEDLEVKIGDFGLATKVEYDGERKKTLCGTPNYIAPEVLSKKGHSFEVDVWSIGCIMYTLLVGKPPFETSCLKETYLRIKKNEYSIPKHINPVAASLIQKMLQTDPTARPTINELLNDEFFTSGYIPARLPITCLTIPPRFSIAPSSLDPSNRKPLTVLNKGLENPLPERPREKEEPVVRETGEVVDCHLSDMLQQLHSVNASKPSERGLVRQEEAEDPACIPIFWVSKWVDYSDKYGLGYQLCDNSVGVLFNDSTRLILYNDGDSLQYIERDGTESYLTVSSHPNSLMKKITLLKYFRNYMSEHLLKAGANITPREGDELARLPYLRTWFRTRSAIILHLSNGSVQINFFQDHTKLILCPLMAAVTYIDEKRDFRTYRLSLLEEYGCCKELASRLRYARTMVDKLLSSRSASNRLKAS

biological target: Serine/threonine-protein kinase PLK1 (Homo sapiens) (UniProt P53350); assay: qHTS for Inhibitors of PLK1-PDB (polo-like kinase 1 - polo-box domain): Primary Screen; details: Plk1 PBD binding of FITC phosphopeptide, fluorescence polarization; further: nearly all actives have a fitted effect of over 65% in size; on max response, negative = inhibition: series mostly up to about 57 µM
On the % scale 0 is the no-effect control and ±100 the full control effect; potency means the concentration at half of the fitted maximal effect.

SMILES	max response, negative = inhibition	Potency
COc1ccc(Cl)cc1Cn1c(C)c(C(=O)NCc2cccc(Cl)c2)sc1=O	inactive: -7.19%	–
CCCCNC(=O)C1CCN(Cc2ccccn2)CC1	–	inconclusive: 26.7 µM [inhibitor, single point]
CCOCCCNC(=S)N(Cc1ccco1)Cc1cc2cc3c(cc2[nH]c1=O)OCCO3	–	inconclusive: 16.8 µM [inhibitor, partial curve]
Cc1cc(C(=O)OCC(=O)N2CCOCC2)c(C)n1-c1ccccc1	inactive: 1.79%	–
Cn1nccc1C(=O)Nc1ccc2c(c1)OCCO2	–	inconclusive: 15 µM [inhibitor, partial curve]
Nc1nnc(C(=O)c2ccccc2N)s1	–	inconclusive: 26.7 µM [inhibitor, single point]
Cc1ccc(S(=O)(=O)N2CCCC2)cc1[N+](=O)[O-]	inactive: -6.54%	–
O=C(CN1CCCCCC1=O)N1CCN(S(=O)(=O)c2cccs2)CC1	–	inconclusive: 26.7 µM [inhibitor, single point]
CC(=O)N1CCC2(CC1)NC(=O)N(c1ccccc1)N2	inactive: -2.87%	–
CCCn1c(C2CCCN2c2nc(-c3cccc(Br)c3)cs2)nc2cc(Cl)c(Cl)cc21 (centres undefined)	inconclusive: -39.3% [inhibitor]	–
COc1ccc2cc(C)c3nnc(SCC(=O)Nc4cc(OC)c(OC)cc4C(=O)O)n3c2c1	–	inconclusive: 21.2 µM [inhibitor, partial curve]
O=C(NCc1ccccn1)c1coc(=O)c(Br)c1	inactive: -11.3%	–
COc1ccc(C(=O)NC(=S)NC(C)c2ccccc2)cc1 (centres undefined)	–	inconclusive: 21.2 µM [inhibitor, partial curve]
CCCN1C(=O)c2ccc(C(=O)Nc3ccccc3C(=O)O)cc2C1=O	inconclusive: -32.8% [inhibitor]	–
CCOc1cc(/C=C2/NC(=O)NC2=O)cc(Br)c1OCc1ccc(C(=O)O)cc1	–	inconclusive: 23.8 µM [inhibitor, single point]
Nc1ccc(/C=C/C(=O)c2ccco2)cc1	inactive: 23.9%	–
CN(C)S(=O)(=O)c1ccc(C(=O)Nc2cc(S(=O)(=O)Nc3ccccc3Cl)ccc2N2CCCCC2)cc1	–	inconclusive: 21.2 µM [inhibitor, partial curve]
CN(C)c1ccc(NC(=O)Nc2cccc3ccccc23)cc1	–	inconclusive: 26.7 µM [inhibitor, partial curve]
O=c1[nH]c2cc3c(cc2cc1CN(Cc1ccccc1)Cc1nnnn1Cc1ccco1)OCCO3	–	inconclusive: 15 µM [inhibitor, partial curve]
O=C(NC1CCCCC1)C(C1CC1)n1c(=O)c(-c2ccco2)nc2ccccc21 (centres undefined)	–	inconclusive: 26.7 µM [inhibitor, partial curve]
CC(=O)c1sc(C(=O)O)c(-c2ccco2)c1-c1ccco1	–	inconclusive: 26.7 µM [inhibitor, single point]
COc1ccc(-c2cc(=O)oc3cc(OC(C)C(=O)NC(Cc4c[nH]c5ccc(O)cc45)C(=O)O)ccc23)cc1 (centres undefined)	inactive: 3.34%	–

Another view of part of the listing above:

| SMILES | max response, negative = inhibition | Potency |
| --- | --- | --- |
| O=C(CN1CCCCCC1=O)N1CCN(S(=O)(=O)c2cccs2)CC1 | – | inconclusive: 26.7 µM [inhibitor, single point] |
| COc1ccc2cc(C)c3nnc(SCC(=O)Nc4cc(OC)c(OC)cc4C(=O)O)n3c2c1 | – | inconclusive: 21.2 µM [inhibitor, partial curve] |
| CN(C)S(=O)(=O)c1ccc(C(=O)Nc2cc(S(=O)(=O)Nc3ccccc3Cl)ccc2N2CCCCC2)cc1 | – | inconclusive: 21.2 µM [inhibitor, partial curve] |
| CN(C)c1ccc(NC(=O)Nc2cccc3ccccc23)cc1 | – | inconclusive: 26.7 µM [inhibitor, partial curve] |

Going on with the list.

SMILES	max response, negative = inhibition	Potency
COc1ccc(C(=O)NC(=S)N2CCNC(=O)C2CC(=O)OC(C)C)cc1 (centres undefined)	inconclusive: -37.7% [inhibitor]	–
O=C(c1ccc(S(=O)(=O)Cc2ccccc2Cl)c([N+](=O)[O-])c1)N1CCN(c2ccccn2)CC1	–	inconclusive: 13.4 µM [inhibitor, partial curve]
CCCSc1nsc(SCCC)c1C(N)=O	inactive: -8.57%	–
O=S(=O)(NCCSCc1ccc(Cl)cc1Cl)c1ccc2c(c1)OCCO2	–	inconclusive: 29.9 µM [inhibitor, partial curve]
Cc1nc(Cl)cc(CS(=O)(=O)c2ccc(Cl)cc2)n1	–	inconclusive: 21.2 µM [inhibitor, single point]
COc1cccc(CNC(=O)CCNS(=O)(=O)c2ccc(Br)s2)c1	–	active: 26.7 µM
CCCCn1c(-c2ccc(OC)cc2)nc2c(=O)n(C)c(=O)[nH]c21	–	inconclusive: 37.7 µM [inhibitor, single point]
Nc1n[nH]c(C2CC2)c1N=Nc1ccc(Cl)c(Cl)c1	inactive: -2.29%	–
COc1ccc(N2CCN(C(=O)c3cc(=O)c4cc(C)c(C)cc4o3)CC2)cc1	–	inconclusive: 29.9 µM [inhibitor, partial curve]
CC(=O)c1ccc(NC(=O)/C(C#N)=C/c2ccncc2)cc1	–	inconclusive: 23.8 µM [inhibitor, single point]
COCCN1C(=O)N[C@@H](c2cccc(C(F)(F)F)c2)C(C(=O)OC)=C1C	–	active: 29.9 µM
Nc1nc(-c2ccc3c(c2)NC(=O)CO3)cs1	–	inconclusive: 26.7 µM [inhibitor, partial curve]
CCC(=O)N(c1nnc(SCC(=O)c2ccc[nH]2)s1)C1CC1	–	inconclusive: 26.7 µM [inhibitor, single point]
COc1ccc(OC)c(C2NC(=O)c3sc(=S)n(-c4ccccc4)c3N2)c1 (centres undefined)	–	inconclusive: 29.9 µM [inhibitor, partial curve]
CCN1CCc2c(sc(N)c2C(N)=O)C1	–	active: 21.2 µM
CCOc1ccc(C(=O)CCN2CCCCC2)cc1	–	inconclusive: 26.7 µM [inhibitor, partial curve]
CCOc1cc(C=NNC(=O)CCCC(=O)NN=Cc2ccc(O)c(OCC)c2)ccc1O	inactive: -0.399%	–
O=C1/C(=C/c2ccccc2)N=C(N2CCOCC2)N1c1cccc(Cl)c1	inactive: -3.49%	–
Cc1ccc(N(C)S(=O)(=O)c2cc(-c3cnc(C4CC4)o3)ccc2C)cc1	–	inconclusive: 21.2 µM [inhibitor, single point]
COc1cc(C=C2C(=O)OC(c3ccccc3)OC2=O)cc(Br)c1O (centres undefined)	–	inconclusive: 2.12 µM [inhibitor, partial curve]
CN(C)C(=O)C1CCC(=O)N1Cc1cccs1 (centres undefined)	–	inconclusive: 29.9 µM [inhibitor, single point]
COCCOC(=O)C1=C(C)N=C2SCCC(=O)N2C1/C=C/c1ccccc1 (centres undefined)	–	inconclusive: 2.67 µM [inhibitor, full curve]
